Assay results published in patent publication US20210139589A1 (APEXIGEN, published 2021).
Positions count from the first letter of the chain named. These are yes or no findings as the source states them, for the method shown. Some results given as binding are weak or reduced against the parent protein; the word gives no strength.

T1: VISTA (antigen of the hybridoma screening ELISA) (UniProt Q9H7M9)
T1 sequence (looked up): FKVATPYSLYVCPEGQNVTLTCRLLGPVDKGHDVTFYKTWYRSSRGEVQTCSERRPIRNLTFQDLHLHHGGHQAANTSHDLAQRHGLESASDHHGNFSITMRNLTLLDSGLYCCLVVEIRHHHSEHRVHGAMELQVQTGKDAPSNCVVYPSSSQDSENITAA

B1: rabbit anti-VISTA antibody clone 2D12 (hybridoma) (antibody, V domains shown)
VH: LSLEESGGRLVTPGTPLTLTCTVSGIDLSSYAMGWVRQAPGKGLEYIGIISSSGSAFYASWAKGRFTISKTSSTTVDLKMTSPTTEDTATYFCARHYAGYTTPYYFNFWGPGTLVTVSS
VL: AYDMTQTPASVEVTVGGTVTIKCQASENIYSNLAWYQQKPGQPPKVLIYAASDLASGVPSRFKGSGSGTEYTLTISGVECADAATYYCQQGFSSSNVDNAFGGGTEVVVK
B2: rabbit anti-VISTA antibody clone 3A5 (hybridoma) (antibody, V domains shown)
VH: LEQSGGGAEGGLVKPGGSLDLCCKASGFSLSSENWICWVRQAPGKGLEWIGCICGANGGSAYHANWVNGRFTLSRDIDQSTDCLHLNSLTASDTAMYYCARAAGVSNAYYFDLWGPGTLVTVSS
VL: DVVMTQTPSSVSAAVGGTVTIKCQASQYIYINLAWYQQKPGQRPKLLIYDASDLASGVPSRFKGSRSGTEFTLTISDLECADAATYYCQCTYGGSTYGNAFGGGTEVVVK
B3: rabbit anti-VISTA antibody clone 14D8 (hybridoma) (antibody, V domains shown)
VH: QEQLEESGGGLVKPEGSLTLTCKASGFDLSSAYYMCWVRQAPGKGLEWIGCIATGSGSTYYASWAKGRFTISKTSSTTVTLQATSLTAADTATLFCARAPYYSYDGYDYALNLWGPGTLVTVSS
VL: IKMTQTPSSVSAVVGGTVTINCQASEDIVTYLAWYQQKPGHSPNLLIYAASTLASGVPSRFKGSGSGTQFTLTISDVQCDDAATYYCQQTYNYADTDNAFGGGTEVVVK
B4: rabbit anti-VISTA antibody clone 14F1 (hybridoma) (antibody, V domains shown)
VH: QSLEESGGDLVKPGASLKLTCTASGFSFSSSYYMCWVRQAPGKGLEWVACFYAGFSGSTYYASWAKGRFTISKTSSTTVTLQMTSLTAADTATYFCAKGASTYGYTGYDYAGDYFILWGPGTLVTVSS
VL: ALVMTQTPSSVSAAVGGTVTINCQASQNIYSNLAWYQQKPGQRPKLLIYAASNLASGVSSRFKGSGSGTEYTLTISDLECDDAATYYCQSAYYSSSADSYNAFGGGTEVVVK
B5: rabbit anti-VISTA antibody clone 29G7 (hybridoma) (antibody, V domains shown)
VH: QSLEESGGRLVTPGTPLTLTCTASGFSLSSYAMGWVRQAPGKGLEWIGIIIVSGNIYYASWAKGQFTISKTSTTVDLKITSPTTEDTATYFCARGDGYTYGLWGQGTLVTVSS
VL: DIVMTQTPASVEAAVGGTVTIKCQASQSVYSRYLAWFQQKPGQPPKLLIYSASTLASGVSSRFKGSGSGTEYTLTISGVQCDDAATYYCQGTFYIPDYIDGFGGGTEVVVK
B6: rabbit anti-VISTA antibody clone 41A11 (hybridoma) (antibody, V domains shown)
VH: B4 VH with V48I, A49G, S58G, S85G, S101N, I116T
VL: ALVMTQTPSSVSAVVRGTVTINCQASQNIGSNLAWYQQKPGQRPKLLVYAASNLESGVPSRFKGSGSGTEFTLTISDLECDDAATYYCQSAYYSSVDSYNTFGGGTEVVVK
B7: rabbit anti-VISTA antibody clone 2H2 (VH) / 2L3 (VL) (antibody, V domains shown)
VH: QSVEESGGRLVTPGTPLTLTCTASGFSLSDYAMTWVRQAPGKGLEYIGIISAGGYTYYASWATGRFTISKTSTTVDLKIPSPTAEDAATYFCARVGYADSSDIYKGFYLWGPGTLVTVSS
VL: DVVMTQTPASVSEPVGGTVTIKCQASESISNYLAWYQQKPGQPPKLLIYLASTLASGVPSRFEGSRSGTEFTLTISDLECADAATYYCHCTDSIINYNFGGGTEVVVK
B8: rabbit anti-VISTA antibody clone 2H4 (VH) / 2L3 (VL) (antibody, V domains shown)
V domain 1: B7 VH with V116A
V domain 2: B7 VL
B9: rabbit anti-VISTA antibody clone 3H1 (VH) / 3L1 (VL) (antibody, V domains shown)
VH: QSLEESGGRLVTPGTPLTLTCTASGFFLNNYYMSWVRQAPGKGLEWIGLIYTSGSTLYANWAKGRFTISRTSTTVDLKITSPTTEDTATYFCARYDNNVDSWLDLWGQGTLVTVSS
VL: AYDMTQTPASVEVAVGGTVTIKCQASQSISSSYLAWYQQKPGQPPKLLIYVTSTLASGVSSRFKGSGSGTQFTLTISGVECADAATYYCQQGYSVSNIDNVFGGGTEVVVK
B10: rabbit anti-VISTA antibody clone 3H2 (VH) / 3L1 (VL) (antibody, V domains shown)
VH: B9 VH with R9H, L17P
VL: B9 VL
B11: rabbit anti-VISTA antibody clone 5H2 (VH) / 5L3 (VL) (antibody, V domains shown)
VH: QSLEESGGRLVTPGTPLTLTCTVSGIDLSSYAMAWVRQAPGEGLEWIGTISSSGHTYYPTWVKGRFTISKPSSTTVDLRMTSPTTEDTATYFCARGHYGYFGTVFALWGPGTLVTVSS
VL: DIVMTQTPSSVSAAVGGTVTINCQASESIQTYLAWYQQKPGQPPKLLIYDASDLASGVPSRFSGSGSGKQFTLTISGVQCDDAATYYCQNYYFSTNSNYGDVFGGGTEMVVK
B12: rabbit anti-VISTA antibody clone 1H1 (VH) / 1L2 (VL) (antibody, V domains shown)
VH: QEQLVESGGGLVQPGGSLKLSCKASGFGFSSYGVSWVRQDPGKGLEWIGYIDPVLGSAAYATWVNGRFTISSHNAQNTLYLQLNSLTAADTATYFCARAGYPGYGYATNFNLWGPGTLVTVSS
VL: ALVMTQTPSSVSAAVGGTVTINCQASQNIYSNLAWYQQKPGQRPKLLIYGASNLESGVPSRFKGSGSGIEYTLTISDLECDDAATYYCQTNYYSHSAPFGGGTEVVVK
B13: rabbit anti-VISTA antibody clone 1H4 (VH) / 1L2 (VL) (antibody, V domains shown)
VH: B12 VH with S25P, G28D
VL: B12 VL
B14: rabbit anti-VISTA antibody clone 3A9 (antibody, V domains shown)
VH: QSVEESGGRLVTPGTTLTLTCTVSGFSLSLYYMSWVRQAPGKGLEWIGMTYTGGSAYYASWAKGRFTISQTSTTVDLKMTTLTVADTATYFCVRGYLADYYGDRDNLWGPGTLVTVSS
VL: IVMTQTPSSKSVPVGDTVTINCQASESVFSDDRLAWYQQKPGQPPKLLIYRASNLASGVPSRFSGSGSGTQFTLTINDVVCDDAATYYCAGYKGDSTDGVAFGGGTEVVVK
B15: rabbit anti-VISTA antibody clone 19B5 (antibody, V domains shown)
VH: QSVEESGGRLVTPGTPLTLTCTVSGFSLSSYWMSWVRQAPGEGLEWIGTIYTDGHTYYAKWAKGRFTISKTSTTVDLKMTSLTTADTATYFCARPWGVWGPGTLVTVSL
VL: QVLTQTPSPVSAAVGGTVTISCQSSESVYSNNRLSWFQQKPGQPPKLLIYQASKLASGVPSRFSGSGSGTQFTLTISGVQCDDAATYYCLGGYDCSSADCDTFGGGTEVVVR
B16: rabbit anti-VISTA antibody clone 10D4 (antibody, V domains shown)
VH: QSVEESGGRLVTPGTPLTLTCTVSGFSLISYWMIWVRQAPGEGLEWIGFINTGGSAYYASWAKGRFTISRTSTTVDLKMTSLTTEDTATYFCARARYDSYITGDLWGPGTLVTVSS
VL: AVLTQTPSPVSAAVGGTVSISCQSSKSVSDNNWLSWYQQKPGQRPKLLIFYASTLASGVPSRFKGSGSGTQFTLTISDVQCDDAATYYCAGAYTNYNDNAFGGGTEVVVK
B17: rabbit anti-VISTA antibody clone 32B7 (antibody, V domains shown)
VH: QSVEESGGRLVTPGTPLTLTCTVSGFSLSSANMGWVRQAPGEGLEYIGLIDTDGTTYYASWAKGRFTISRTSTTVDLKMTSLTTEDTATYFCARLRTGYGDLWGPGTLVAVSS
VL: QAVVTQTPSSVSAAVGGTVTISCQSSQSVYNNNFLSWYQQKPGQPPKLLIYRASNLETGVSSRFSGSGSGTQFTLTISGVQCDDAATYYCAGYYSSGWYYTFGGGTEVVVK
B18: rabbit anti-VISTA antibody clone 9A3 (antibody, V domains shown)
VH: B7 VH
VL: B7 VL
B19: rabbit anti-VISTA antibody clone 34C3 (antibody, V domains shown)
VH: QSVEESGGRLVTPGTPLTLTCTVSGFSLSSHAMSWVRQAPGKGLEWIGIIWTGGNTYYANWAKGRFTISKTSTTVDLKITSPIMEDTATYFCARYLNVEIGDVWGPGTLVTVSS
VL: QVLTQTPSSVSAAVGGTVTISCQSSQSVYKNNYLAWFQQKPGQPPKGLIYGASSLASGVSSRFKGSGSGTQFTLTISDVQCVDAATYYCQGCYYTAGSGDNYAFGGGTEVVVR
B20: rabbit anti-VISTA antibody clone 5C12 (antibody, V domains shown)
VH: QSVEESGGRLVAPGTPLTLTCAVSGFSLSSYDMSWVRQAPGKGLEYIGVIGTGSTGPYYTSWAKGRFTISKTSTTVDLKITSPTTEDTATYFCARGWVKLDLWGPGTPVTVSS
VL: QVLTQTPSPVSAAVGGTVTINCHSSQSVYNDNYLSWFQQKPGQPPKLLIYQASNLASGVPSRFKGSGSGTPFTLTIYDLECGDAATYYCAGGYNIGDSYSAFGGGTEVVVQ
B21: rabbit anti-VISTA antibody clone 18D3 (antibody, V domains shown)
VH: QSVEESGGRLVTPGTPLTLACTVSGIDLSTNVMSWVRQAPGKGLEWIGIIFDSDITYYANWAKGRFTISKTSTTVDLKFTSPTTEDTATYFCARYDTYGYSYSIDLWGPGTLVTVSS
VL: AYDMTQTPASAEVAVGGTVTINCQASEDIYNLLAWYQQKPGQRPKLLIYRASTLASGVSSRFKGSGSGTDYTLTISGVQCDDAATYYCQQGHSSRNVDNAFGGGTEVVVK
B22: rabbit anti-VISTA antibody clone 15H1 (VH) / 15L1 (VL) (antibody, V domains shown)
VH: QSLEESGGRLVTPGTPLTLTCTVSGIDLSDYAMGWVRQAPGKGLEYIAVISPIAYTYYAPWARGRFTISRASTTVDLKVTSPTTEDTATYFCARWAGTGWGYFNLWGPGTLVTVSS
VL: AFELTQTPSSVSEPVGGTVTIKCQASESVSNYLAWYQQKPGQPPKLLIYGASTLESGVPSRFSGSGSGTEFTLTISDLECADAATYYCQEYDPSIDSGSVFGGGTELVVK
B23: rabbit anti-VISTA antibody clone 4A2 (antibody, V domains shown)
VH: QELVESGGGLVQPGESLKLSCKASGFDFSSYGVSWVRQAPGKGLEWVGYIDPVLGSAAHASWVNGRFTISSHNAQNTLYLQLNSLTAADTATYFCARAGYAGYGYGTGFNLWGPGTLVTVSS
VL: QVLTQTASPVSAAVGGTVTINCQASQNIYSNLAWYQQKPGQRPKLLIYGASNLESGVPSRFRGSGSGTDYTLTISDLECDDAATYYCQSAYYSTSADNPFGGGTEVVVK

Each binder was assayed against T1, VISTA (antigen of the hybridoma screening ELISA) (assay: ELISA binding assay, hybridoma screen).

binding, binds:
B1
B2
B3
B4
B5
B6
B7
B8
B9
B10
B11
B12
B13
B14
B15
B16
B17
B18
B19
B20
B21
B22
B23
